This note sets out measurements from the M2OR odorant receptor database.

Molecules are shown by their SMILES. The entries are a selection whose mix differs from that of the whole data set. The calls were merged from several studies; some rest on single wells. The list shows a part of the results. Some of the results follow.

Conditions in all cases: stereoisomer not certain
The subject of test [1] is T1, OR2W1.
T1 sequence (whole entry): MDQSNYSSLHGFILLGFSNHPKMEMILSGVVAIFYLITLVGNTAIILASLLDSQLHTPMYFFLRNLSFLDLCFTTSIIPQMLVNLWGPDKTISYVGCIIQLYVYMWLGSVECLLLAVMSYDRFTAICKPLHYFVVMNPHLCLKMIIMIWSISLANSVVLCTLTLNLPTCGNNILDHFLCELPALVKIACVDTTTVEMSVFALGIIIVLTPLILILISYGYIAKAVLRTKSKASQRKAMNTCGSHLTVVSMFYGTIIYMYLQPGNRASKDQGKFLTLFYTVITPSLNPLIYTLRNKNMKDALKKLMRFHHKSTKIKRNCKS
In short, it runs like this: (§1)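 Whether a receptor–molecule pair is responsive (active) rests on the original authors' judgment that its measured signal was statistically different from baseline. Pairs without that judgment are non-responsive (inactive). Sources used varied assay methods, commonly transient luciferase assays in mammalian cell lines.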

The subject of test [2] is T2, OR2W3.
T2 sequence (whole entry): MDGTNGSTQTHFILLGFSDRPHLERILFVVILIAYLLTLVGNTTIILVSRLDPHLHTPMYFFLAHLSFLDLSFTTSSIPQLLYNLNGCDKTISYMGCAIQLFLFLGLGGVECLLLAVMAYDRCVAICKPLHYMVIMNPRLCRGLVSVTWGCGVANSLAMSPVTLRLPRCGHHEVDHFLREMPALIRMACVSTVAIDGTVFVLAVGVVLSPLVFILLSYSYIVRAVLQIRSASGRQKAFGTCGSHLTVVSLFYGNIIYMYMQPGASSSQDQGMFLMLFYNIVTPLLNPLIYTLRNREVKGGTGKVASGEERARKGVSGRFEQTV
In short, it runs like this: as §1

The target of test [3] is T3, OR2W5P (Homo sapiens) (UniProt A6NFC9).
T3 sequence (whole entry): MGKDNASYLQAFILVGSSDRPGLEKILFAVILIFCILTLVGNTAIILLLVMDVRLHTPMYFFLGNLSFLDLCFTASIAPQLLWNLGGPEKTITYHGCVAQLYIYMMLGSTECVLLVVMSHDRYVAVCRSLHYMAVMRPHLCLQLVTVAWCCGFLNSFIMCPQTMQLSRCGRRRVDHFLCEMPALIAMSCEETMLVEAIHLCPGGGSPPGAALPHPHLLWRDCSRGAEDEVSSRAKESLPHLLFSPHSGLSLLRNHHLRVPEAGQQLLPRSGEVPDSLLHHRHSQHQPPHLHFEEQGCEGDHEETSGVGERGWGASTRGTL
In short, it runs like this: as §1

The subject of test [4] is T4, OR2Y1.
T4 sequence (whole entry): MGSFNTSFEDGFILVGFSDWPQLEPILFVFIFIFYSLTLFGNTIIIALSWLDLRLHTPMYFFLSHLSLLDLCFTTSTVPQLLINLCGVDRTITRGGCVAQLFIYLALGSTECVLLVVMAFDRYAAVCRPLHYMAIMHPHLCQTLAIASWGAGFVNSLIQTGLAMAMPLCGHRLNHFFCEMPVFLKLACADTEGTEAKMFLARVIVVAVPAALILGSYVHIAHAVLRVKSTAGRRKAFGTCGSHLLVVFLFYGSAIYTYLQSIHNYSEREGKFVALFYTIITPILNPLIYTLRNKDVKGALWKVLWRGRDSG
In short, it runs like this:
as §1

Test [5] has as its target T5, OR2Z1 (Homo sapiens) (UniProt Q8NG97).
T5 sequence (whole entry): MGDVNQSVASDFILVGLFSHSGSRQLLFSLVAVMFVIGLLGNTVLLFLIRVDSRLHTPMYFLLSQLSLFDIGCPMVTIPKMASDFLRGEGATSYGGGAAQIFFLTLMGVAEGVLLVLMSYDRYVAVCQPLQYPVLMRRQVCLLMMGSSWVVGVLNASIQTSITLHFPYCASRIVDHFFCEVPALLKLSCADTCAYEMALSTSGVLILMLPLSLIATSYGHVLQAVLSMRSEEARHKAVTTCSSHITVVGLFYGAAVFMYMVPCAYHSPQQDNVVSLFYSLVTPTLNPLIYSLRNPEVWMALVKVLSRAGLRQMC
The gist of the method:
as §1

In test [6] the target is T6, OR3A1 (Homo sapiens) (UniProt P47881).
T6 sequence (whole entry): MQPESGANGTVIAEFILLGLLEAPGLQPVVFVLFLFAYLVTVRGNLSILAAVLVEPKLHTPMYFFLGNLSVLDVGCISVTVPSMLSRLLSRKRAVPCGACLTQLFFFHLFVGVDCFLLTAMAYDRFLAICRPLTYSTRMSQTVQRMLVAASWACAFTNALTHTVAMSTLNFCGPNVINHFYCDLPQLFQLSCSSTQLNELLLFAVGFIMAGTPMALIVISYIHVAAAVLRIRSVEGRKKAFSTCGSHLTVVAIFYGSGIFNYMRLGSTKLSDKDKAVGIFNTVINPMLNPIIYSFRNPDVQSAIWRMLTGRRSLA
The gist of the method:
as §1

In test [7] the target is T7, OR3A2 (Homo sapiens) (UniProt P47893).
T7 sequence (whole entry): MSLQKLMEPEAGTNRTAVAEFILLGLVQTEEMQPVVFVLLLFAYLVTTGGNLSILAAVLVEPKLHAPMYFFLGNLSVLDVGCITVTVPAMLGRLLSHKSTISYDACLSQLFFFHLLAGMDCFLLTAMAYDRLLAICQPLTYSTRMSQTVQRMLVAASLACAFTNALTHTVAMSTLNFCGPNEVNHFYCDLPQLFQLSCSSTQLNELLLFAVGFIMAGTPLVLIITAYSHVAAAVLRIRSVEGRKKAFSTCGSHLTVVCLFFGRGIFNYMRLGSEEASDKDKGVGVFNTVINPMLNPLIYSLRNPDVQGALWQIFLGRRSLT
In short, it runs like this: as §1

Test [8] has as its system T8, OR3A3.
T8 sequence (whole entry): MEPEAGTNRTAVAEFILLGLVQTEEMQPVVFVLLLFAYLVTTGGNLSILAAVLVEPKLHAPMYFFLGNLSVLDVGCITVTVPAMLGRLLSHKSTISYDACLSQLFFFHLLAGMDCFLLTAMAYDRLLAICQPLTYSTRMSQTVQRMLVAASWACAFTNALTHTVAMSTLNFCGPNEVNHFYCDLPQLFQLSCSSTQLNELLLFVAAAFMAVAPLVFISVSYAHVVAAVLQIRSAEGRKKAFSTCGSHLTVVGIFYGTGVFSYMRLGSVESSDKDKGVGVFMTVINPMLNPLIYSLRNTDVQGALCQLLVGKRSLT
The gist of the method: as §1

In test [9] the test system is T9, OR3A4.
T9 sequence (whole entry): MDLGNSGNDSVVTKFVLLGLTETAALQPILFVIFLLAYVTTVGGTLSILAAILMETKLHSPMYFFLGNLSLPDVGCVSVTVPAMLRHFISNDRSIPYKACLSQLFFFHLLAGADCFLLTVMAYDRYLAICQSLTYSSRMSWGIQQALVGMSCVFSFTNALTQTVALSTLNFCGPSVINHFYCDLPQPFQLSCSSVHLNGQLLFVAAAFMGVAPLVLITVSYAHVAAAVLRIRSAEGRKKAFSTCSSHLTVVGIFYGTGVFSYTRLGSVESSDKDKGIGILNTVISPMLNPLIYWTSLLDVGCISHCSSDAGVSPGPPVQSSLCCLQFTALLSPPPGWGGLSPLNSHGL
In short, it runs like this: as §1

Test [10] addresses T10, OR4A16 (Homo sapiens) (UniProt Q8NH70).
T10 sequence (whole entry): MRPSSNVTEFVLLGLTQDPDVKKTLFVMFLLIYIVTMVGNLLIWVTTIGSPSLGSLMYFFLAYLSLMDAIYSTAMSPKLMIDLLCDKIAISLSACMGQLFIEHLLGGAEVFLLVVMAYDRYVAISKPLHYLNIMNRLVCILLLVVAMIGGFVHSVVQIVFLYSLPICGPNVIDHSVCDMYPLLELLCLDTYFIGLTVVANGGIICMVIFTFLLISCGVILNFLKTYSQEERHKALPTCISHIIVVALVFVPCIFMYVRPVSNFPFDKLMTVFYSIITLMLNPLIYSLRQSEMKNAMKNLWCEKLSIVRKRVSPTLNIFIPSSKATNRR
In short, it runs like this:
as §1

The target of test [11] is T11, OR4A4P (Homo sapiens) (UniProt Q8NGN8).
T11 sequence (whole entry): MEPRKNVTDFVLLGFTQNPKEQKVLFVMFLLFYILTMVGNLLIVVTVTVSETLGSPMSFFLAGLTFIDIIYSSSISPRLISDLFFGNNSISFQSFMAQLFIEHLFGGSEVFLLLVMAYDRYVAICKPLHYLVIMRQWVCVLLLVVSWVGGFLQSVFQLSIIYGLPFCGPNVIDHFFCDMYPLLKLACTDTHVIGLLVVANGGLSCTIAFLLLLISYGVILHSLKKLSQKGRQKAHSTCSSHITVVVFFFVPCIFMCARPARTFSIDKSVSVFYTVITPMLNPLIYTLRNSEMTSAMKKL
The gist of the method: as §1

Test [12] has as its target T12, OR4A5 (Homo sapiens) (UniProt Q8NH83).
T12 sequence (whole entry): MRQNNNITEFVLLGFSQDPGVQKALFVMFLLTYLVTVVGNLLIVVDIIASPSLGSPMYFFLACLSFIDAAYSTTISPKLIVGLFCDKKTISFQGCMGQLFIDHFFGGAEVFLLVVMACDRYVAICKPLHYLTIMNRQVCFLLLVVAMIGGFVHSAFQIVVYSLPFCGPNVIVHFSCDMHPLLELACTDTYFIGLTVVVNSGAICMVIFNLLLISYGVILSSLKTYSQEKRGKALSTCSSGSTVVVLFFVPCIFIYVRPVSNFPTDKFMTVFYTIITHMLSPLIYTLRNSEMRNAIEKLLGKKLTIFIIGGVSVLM
The gist of the method: as §1

Test [13] relates to T13, OR4A5.
T13 sequence (whole entry): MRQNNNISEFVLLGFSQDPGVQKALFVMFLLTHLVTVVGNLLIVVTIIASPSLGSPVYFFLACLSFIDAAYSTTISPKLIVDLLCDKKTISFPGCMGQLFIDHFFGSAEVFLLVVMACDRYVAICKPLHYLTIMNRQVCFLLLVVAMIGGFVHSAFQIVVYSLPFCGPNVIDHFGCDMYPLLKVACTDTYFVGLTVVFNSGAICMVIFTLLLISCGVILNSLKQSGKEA
In short, it runs like this:
as §1

The target in test [14] is T14, OR4B1 (Homo sapiens) (UniProt Q8NGF8).
T14 sequence (whole entry): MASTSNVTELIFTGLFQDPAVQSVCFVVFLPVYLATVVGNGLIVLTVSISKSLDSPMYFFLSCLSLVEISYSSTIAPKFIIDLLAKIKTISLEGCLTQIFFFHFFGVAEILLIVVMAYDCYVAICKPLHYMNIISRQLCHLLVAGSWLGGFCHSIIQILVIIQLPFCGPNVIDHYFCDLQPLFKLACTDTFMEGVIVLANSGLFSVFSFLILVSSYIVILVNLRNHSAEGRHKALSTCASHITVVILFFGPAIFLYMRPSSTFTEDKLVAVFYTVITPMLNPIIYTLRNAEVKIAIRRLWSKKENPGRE
In short, it runs like this: as §1

Test [15] addresses T15, OR4C11 (Homo sapiens) (UniProt Q6IEV9).
T15 sequence (whole entry): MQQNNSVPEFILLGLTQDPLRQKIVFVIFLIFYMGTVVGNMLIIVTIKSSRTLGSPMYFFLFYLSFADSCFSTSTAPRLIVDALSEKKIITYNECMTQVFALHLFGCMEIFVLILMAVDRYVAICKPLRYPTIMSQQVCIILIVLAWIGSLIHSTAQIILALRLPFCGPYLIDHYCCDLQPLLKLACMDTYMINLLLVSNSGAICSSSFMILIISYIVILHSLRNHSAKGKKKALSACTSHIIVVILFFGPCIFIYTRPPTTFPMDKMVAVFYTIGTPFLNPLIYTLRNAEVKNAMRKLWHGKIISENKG
The gist of the method:
as §1
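Note: active if original authors judged signal statistically different from baseline.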

`COc1ccccc1O`: the “odorant receptor agonist call” value in [1], in [2], in [3], in test [5], in test [6] and in [7] was “inactive” in each case. For the same compound, the “odorant receptor agonist call” value in test [8], in test [9], in [10], in [11], in [12] and in [13] was “inactive” each time. Moreover, the “odorant receptor agonist call” value in test [14] and in test [15] was “inactive” each time. For the same compound, the “odorant receptor agonist call” value in [4] is “active”.
Regarding `CCCCCCCCCC=O`, the “odorant receptor agonist call” value in test [1], in [2], in test [3], in test [4], in test [5] and in test [6] was “inactive” throughout. Besides, the “odorant receptor agonist call” value in test [7], in test [8], in [9], in test [10], in test [11] and in test [13] was “inactive” each time. Further, the “odorant receptor agonist call” value in test [14] and in test [15] was “inactive” throughout. The “odorant receptor agonist call” value in [12] is “active”.
Regarding `CCC1(O)C2(C)CCC(C2)C1(C)C` (stereo not drawn), the “odorant receptor agonist call” value in [1], in [2], in [3], in [4], in test [5] and in test [6] was “inactive” in each case. For the same compound, the “odorant receptor agonist call” value in test [7], in test [8], in test [9], in test [10], in [11] and in test [12] was “inactive” each time. In addition, the “odorant receptor agonist call” value in [13], in test [14] and in test [15] was “inactive” each time.
Take `C=C(C)C1CCC2=CC(=O)CC(C)C2(C)C1` (stereo not drawn): the “odorant receptor agonist call” value in test [8], in [9] and in [12] was “active” throughout.
